Experimental data: PubChem BioAssay AID602203 (INSERM, 2012)
The whole screen tested 999 reagents; this is an unselected part. 85 of all reagents (8.5%) were called active. 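Unclear how single-siRNA scores of -1, 0 or +1 give the printed -4 to 4 range; calls lie near -3 or 3 and beyond.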 Unmarked entries are inactive. Reagent sequences are not shown. Not stated in the record: the amount of reagent, the time to read-out, the dose of the treatment.

- Assay: 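Confirming genes that raise or lower cisplatin-induced death in A549 cells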 (follow-up of hits)
- Cells: human A549 lung cancer cells
- Reagent: siRNA pair against human genes
- Conditions: cisplatin at a dose killing half of control-siRNA cells, given 48 h after transfection
- Detection: 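Two siRNAs per gene scored +1 protective, -1 sensitizing, 0 if toxic by LDH or growth-reducing by WST-1; cisplatin given 48 h later at 50% control kill; scores summed, mean death shift versus control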
- Reading the numbers: summed siRNA score for cisplatin death: higher = more siRNAs reduced cisplatin-induced cell death; change in cisplatin death versus control: higher = fewer cells died than in control
- Active means: In these data the active calls have summed siRNA score for cisplatin death at about -3 or lower, or at about 3 or higher

| Gene | summed siRNA score for cisplatin death | change in cisplatin death versus control (percentage points) |
| --- | --- | --- |
| AOX1 | -1 | – |
| MMP11 | 0 | – |
| LINC00898 | 0 | – |
| PRELID1P6 | -1 | – |
| OR10A2 | -1 | – |
| TOB2 | 1 | – |
| LOC401937 | -1 | – |
| ADGRE4P | 1 | – |
| LOC440397 | 0 | – |
| NPC2 | 0 | – |
| PACSIN1 | 0 | – |
| TSPO | 2 | – |
| RAMP1 | 0 | – |
| USP32P2 | 0 | – |
| FLOT2 | -4 (active) | -9.25 |
| DAGLA | 2 | – |
| CDPF1 | -1 | – |
| OLR1 | -1 | – |
| LOC390564 | 1 | – |
| LOC149224 | 2 | – |
| LOC440748 | 1 | – |
| TMEM161B | -1 | – |
| NEK2 | 2 | – |
| MTAP | 0 | – |
| CACNA2D4 | -2 | – |
| PSMC3IP | -2 | – |
| CNTNAP5 | 1 | – |
| PLD3 | -3 (active) | -10.8 |
| LOC200213 | 1 | – |
| CYC1 | -1 | – |
| OR4K13 | 1 | – |
| LOC440669 | 2 | – |
| MMP16 | 0 | – |
| PLA2G10 | -1 | – |
| HPR | 1 | – |
| GRB2 | -1 | – |
| LCE1C | 1 | – |
| PHTF1 | 0 | – |
| TCAIM | 1 | – |
| LOC441641 | 1 | – |
| PPY | -2 | – |
| LTA | -2 | – |
| AFG3L2 | -2 | – |
| ALDH4A1 | -2 | – |
| SLC2A11 | -1 | – |
| BCL2L1 | -3 (active) | -17.4 |
| ATF4 | 1 | – |
| LOC440056 | 3 (active) | 12.5 |
| LOC389958 | 0 | – |
| CHP1 | 1 | – |
| ISG20 | 1 | – |
| TMPRSS3 | 1 | – |
| USP18 | 0 | – |
| ZNF80 | 0 | – |
| PCDHA1 | -1 | – |
| CD34 | -3 (active) | -6.18 |
| LOC389873 | 0 | – |
| FLJ38508 | 1 | – |
| CGGBP1 | 0 | – |
| LOC442728 | 1 | – |
| SOX1 | 0 | – |
| LAD1 | 1 | – |
| NCR3LG1 | 0 | – |
| STK33 | 1 | – |
| TMED1 | -3 (active) | -8.74 |
| LOC196266 | 2 | – |
| MCL1 | -3 (active) | -11.7 |
| LOC441740 | 1 | – |
| ZNF664 | 1 | – |
| ALG6 | 0 | – |
| LOC440960 | 0 | – |
| LOC151320 | -1 | – |
| PDHA1 | -2 | – |
| MARCKSL1 | 0 | – |
| KCNG4 | 1 | – |
| PSMA8 | 0 | – |
| DNM1P5 | 0 | – |
| NFYC | 0 | – |
| CFAP46 | -3 (active) | -11.6 |
| HNF4G | -1 | – |
| LOC389124 | 0 | – |
| ITGB6 | -4 (active) | -10.7 |
| GTF3C4 | 1 | – |
| GPATCH2L | 1 | – |
| TUSC2 | 0 | – |
| NLRP1 | -3 (active) | -8.13 |
| COCH | -1 | – |
| ZNF572 | -1 | – |
| DCLRE1A | -1 | – |
| CPA2 | 1 | – |
| MSRA | -1 | – |
| ADORA2B | 0 | – |
| TMEM184B | 1 | – |
| USP8 | -3 (active) | -13.6 |
| EDARADD | 2 | – |
| DYNLT2 | -3 (active) | -7.73 |
| APOBEC3A | -1 | – |
| DSG3 | 1 | – |
| IKBIP | -2 | – |
| LOC440442 | 1 | – |
| P2RX2 | 0 | – |
| SHROOM2 | 2 | – |
| LOC440071 | -1 | – |
| OR52E5 | 2 | – |
| LOC441802 | 1 | – |
| BTN2A3P | -1 | – |
| NUAK2 | 1 | – |

Records above whose gene name begins with P or p (11):
| Gene | summed siRNA score for cisplatin death | change in cisplatin death versus control (percentage points) |
| --- | --- | --- |
| PRELID1P6 | -1 | – |
| PACSIN1 | 0 | – |
| PSMC3IP | -2 | – |
| PLD3 | -3 (active) | -10.8 |
| PLA2G10 | -1 | – |
| PHTF1 | 0 | – |
| PPY | -2 | – |
| PCDHA1 | -1 | – |
| PDHA1 | -2 | – |
| PSMA8 | 0 | – |
| P2RX2 | 0 | – |
